The record followed here is patent publication US8404644.

These are yes or no findings as the source states them, for the method shown. Some results given as binding are weak or reduced against the parent protein; the word gives no strength.

In the assay the target is T1, bovine βA3 crystallin (bovine) (UniProt P11843).
T1 sequence (looked up): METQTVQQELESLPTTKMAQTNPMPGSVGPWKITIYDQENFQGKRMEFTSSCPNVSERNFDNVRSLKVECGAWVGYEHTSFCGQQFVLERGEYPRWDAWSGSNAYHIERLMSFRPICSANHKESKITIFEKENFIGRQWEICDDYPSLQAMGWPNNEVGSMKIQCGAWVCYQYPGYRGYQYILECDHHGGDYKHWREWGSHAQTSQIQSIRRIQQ
As to the kind of experiment: gel filtration on Sephacryl 300 HR in distilled water at neutral pH (heterodimer).

B1: bovine βB2 crystallin (protein)
chain: ASDHQTQAGKPQPLNPKIIIFEQENFQGHSHELNGPCPNLKETGVEKAGSVLVQAGPWVGYEQANCKGEQFVFEKGEYPRWDSWTSSRRTDSLSSLRPIKVDSQEHKITLYENPNFTGKKMEVIDDDVPSFHAHGYQEKVSSVRVQSGTWVGYQYPGYRGLQYLLEKGDYKDSGDFGAPQPQVQSVRRIRDMQWHQRGAFHPSS
modifications: N-terminus acetylated (as extracted from bovine eye)
For the molecule B1, the binding entry is “binds”.
